The results in this text go back to the supplement of paper PMC4604168 (melanoma cell lines).

The list shows a part of the results. Many values rest on one well or one pass, so single values are uncertain.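 The apoptosis fraction was the count of cleaved-PARP antibody-stained nuclei relative to all DNA-stained nuclei, imaged in 1,536-well plates. Screening doses were set so most cells survived, and baseline and induced cleaved-PARP levels vary greatly across cell lines.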

The first test has as its system WM1745. The test can be described thus: cleaved PARP positive nuclei fraction relative to DMSO control; melanoma cells; higher = more apoptosis. To be noted: library dose: low library concentration; 72 h.
As to `Cc1ccc(Nc2nccc(N(C)c3ccc4c(C)n(C)nc4c3)n2)cc1S(N)(=O)=O` [Pazopanib] + Cn1c(=O)n(-c2ccc(C(C)(C)C#N)cc2)c2c3cc(-c4cnc5ccccc5c4)ccc3ncc21 [NVP-BEZ235] (first compound 0.4 µM, partner dose 0.004 µM), the “cleaved PARP positive nuclei fraction” value stood at 97.5%. On the same count and under the same terms, the result for `Cc1cc(Nc2cc(N3CCN(C)CC3)nc(Sc3ccc(NC(=O)C4CC4)cc3)n2)n[nH]1` [Tozasertib] + CS(=O)(=O)CCNCc1ccc(-c2ccc3ncnc(Nc4ccc(OCc5cccc(F)c5)c(Cl)c4)c3c2)o1 [lapatinib] (first compound 0.006 µM, partner dose 0.8 µM) reads 105%. On the same count and under the same terms, the same measure for `Cc1ccc(Nc2nccc(N(C)c3ccc4c(C)n(C)nc4c3)n2)cc1S(N)(=O)=O` [Pazopanib] + Nc1nc(F)nc2c1ncn2[C@@H]1O[C@H](CO)[C@@H](O)[C@@H]1O [fludarabine] (first compound 0.4 µM, partner dose 0.2 µM): 120%; for `N#CC[C@H](C1CCCC1)n1cc(-c2ncnc3[nH]ccc23)cn1` [ruxolitinib] + CC(=O)c1c(C)c2cnc(Nc3ccc(N4CCNCC4)cn3)nc2n(C2CCCC2)c1=O [palbociclib] (first compound 1 µM, partner dose 0.04 µM): 113%. Same read-out and setting: the result for `O=C(Nc1cc(C(F)(F)F)cc(C(F)(F)F)c1)c1cc(Cl)ccc1O` + Nc1nc(F)nc2c1ncn2[C@@H]1O[C@H](CO)[C@@H](O)[C@@H]1O [fludarabine] (first compound 0.016 µM, partner dose 0.2 µM) reads 74.9%; that for `O=C(Nc1cc(C(F)(F)F)cc(C(F)(F)F)c1)c1cc(Cl)ccc1O` + O=C(/C=C/c1cccnc1)NCCCCC1CCN(C(=O)c2ccccc2)CC1 [FK866] (first compound 0.016 µM, partner dose 0.01 µM), 105%.

A further test concerns WM3526. The description is as above. To be noted: library dose: low library concentration; 72 h.
As to `N#CC[C@H](C1CCCC1)n1cc(-c2ncnc3[nH]ccc23)cn1` [ruxolitinib] + C=CCNC1=C2C[C@@H](C)C[C@H](OC)[C@H](O)[C@@H](C)/C=C(\C)[C@H](OC(N)=O)[C@@H](OC)/C=C\C=C(/C)C(=O)NC(=CC1=O)C2=O [Tanespimycin] (first compound 1 µM, partner dose 0.002 µM), the “cleaved PARP positive nuclei fraction” value stood at 88.3%.

With `Cc1cn(-c2cc(NC(=O)c3ccc(C)c(Nc4nccc(-c5cccnc5)n4)c3)cc(C(F)(F)F)c2)cn1` [nilotinib] + COCC[n+]1c2c(n(Cc3cnccn3)c1C)C(=O)c1ccccc1C2=O [YM155] (first compound 0.2 µM, partner dose 0.0004 µM), the “cleaved PARP positive nuclei fraction” value is 19.6%. On the same count and under the same terms, the result for `Cc1cn(-c2cc(NC(=O)c3ccc(C)c(Nc4nccc(-c5cccnc5)n4)c3)cc(C(F)(F)F)c2)cn1` [nilotinib] + CCN(CC)CCNC(=O)c1c(C)[nH]c(/C=C2\C(=O)Nc3ccc(F)cc32)c1C [sunitinib] (first compound 0.2 µM, partner dose 0.4 µM) reads 99.6%; that for `COc1cc([C@@H]2c3cc4c(cc3[C@@H](O[C@@H]3O[C@@H]5CO[C@@H](C)O[C@H]5[C@H](O)[C@H]3O)[C@H]3COC(=O)[C@H]23)OCO4)cc(OC)c1O` [etoposide] + CNC(=O)c1cc(Oc2ccc(NC(=O)Nc3ccc(Cl)c(C(F)(F)F)c3)cc2)ccn1 [sorafenib] (first compound 0.02 µM, partner dose 0.4 µM), 89.5%. Still for that read-out and setting: the result for `Cc1cc(Nc2cc(N3CCN(C)CC3)nc(Sc3ccc(NC(=O)C4CC4)cc3)n2)n[nH]1` [Tozasertib] + CN1CCN(c2ccc3nc(-c4c(N)c5c(F)cccc5[nH]c4=O)[nH]c3c2)CC1 [Dovitinib] (first compound 0.006 µM, partner dose 0.1 µM) reads 44.9%; that for `COc1cc([C@@H]2c3cc4c(cc3[C@@H](O[C@@H]3O[C@@H]5CO[C@@H](C)O[C@H]5[C@H](O)[C@H]3O)[C@H]3COC(=O)[C@H]23)OCO4)cc(OC)c1O` [etoposide] + Nc1cccc2c1CN(C1CCC(=O)NC1=O)C2=O [lenalidomide] (first compound 0.02 µM, partner dose 1 µM), 98.1%.

For the compound `CC[C@]1(O)C[C@H]2CN(CCc3c([nH]c4ccccc34)[C@@](C(=O)OC)(c3cc4c(cc3OC)N(C=O)[C@H]3[C@@](O)(C(=O)OC)[C@H](OC(C)=O)[C@]5(CC)C=CCN6CC[C@]43[C@@H]65)C2)C1` [vincristine] + Cc1cn(-c2cc(NC(=O)c3ccc(C)c(Nc4nccc(-c5cccnc5)n4)c3)cc(C(F)(F)F)c2)cn1 [nilotinib] (first compound 0.0001 µM, partner dose 0.2 µM), the “cleaved PARP positive nuclei fraction” value was found to be 118%.
